From publication PMC12040169 (PLOS Biology, 2025)
This is one part of the list.

Test system: T1, CTL2-GFP (C. trachomatis L2/434/Bu, GFP-expressing)
T1 construct: L2/434/Bu, GFP-expressing
Parameters: species or system HeLa; Intracellular C. trachomatis growth in HeLa cells, bulk GFP fluorescence relative to DMSO
Conditions: bulk GFP, single well; 28.5 h, 10 µM; inhibitor

Structure (SMILES)	% of control remaining [%]
Sc1nnc(CSCc2ccccc2Cl)n1-c1ccccc1 [CBK265219]	115.052
Nc1ccc(-c2nc(-c3ccccc3)c3cc(-c4ccc5nc(-c6ccc(N)cc6)nc(-c6ccccc6)c5c4)ccc3n2)cc1 [CBK261152]	97.1807
COc1ccccc1CC(=O)NCc1nc(-c2cccc(C)c2)no1 [CBK269336]	124.036
Cn1c(COc2cccc3cccnc23)nnc1SCC(=O)O [CBK300505]	107.275
COc1ccc([C@@]23CC[C@@H](NC(=O)Nc4cccc(C(F)(F)F)c4F)C[C@@H]2CN(C)C3)cc1OC [CBK063195A]	116.7
COc1ccccc1NC(=O)CNC(=O)c1ccc([N+](=O)[O-])cc1 [CBK268657]	137.903
C[C@H](Nc1cncc(-c2ccc(F)cc2F)n1)c1ccccc1 [CBK065684]	99.2416
Cc1nc(C2CN(Cc3ccc(Cl)c4cccnc34)CCO2)no1 (centres unmarked) [CBK305384]	95.7998
COCCn1cnnc1CN(C)C(=O)NC(C)c1nc2ccccc2[nH]1 (centres unmarked) [CBK307155]	141.427
CN(C)c1ccc(CNC(=O)Cn2nc(C(=O)O)c3ccccc3c2=O)cc1 [CBK295330]	140.102
Cc1ccc(C2CC(=O)C(=CNCCN3CCN(C(=S)Nc4ccccc4)CC3)C(=O)C2)cc1 (centres unmarked) [CBK263665]	100.737
O=C(Nc1ccc2oc(-c3cccnc3)nc2c1)c1ccc(-c2ccccc2OC(F)(F)F)o1 [CBK263872]	104.585
S=c1[nH]ccn1Cc1cccs1 [CBK008454]	124.967
Cc1nc2c(c(=O)[nH]1)CN(C1CCCCC1)CC2 [CBK282416]	128.171
CCc1c(C)nc2n(c1=O)C(CS(=O)(=O)c1ccccc1)CS2 (centres unmarked) [CBK268949]	137.978
Cn1cncc1CN(Cc1ccccn1)Cc1ccccc1Cl [CBK282129]	98.7849
Cc1ccc(C(=O)NCc2cccnc2N(C)C2CCCCC2)cn1 [CBK306514]	102.561
COc1ccc(-c2c(-c3ccc(OCc4cnn(-c5ccccc5)c4)c(C)c3O)n[nH]c2C)cc1 [CBK265006]	117.312
CCC(CC)C(=O)N(C)c1c(C)nc2ccc(C(=O)NCCc3c[nH]c4ccccc34)cn12 [CBK146495]	165.764
Brc1cccc(NN=C2CCCC2)n1 [CBK006748]	130.499
Cc1nc(CC(=O)Nc2ccc(N3CCOCC3)cn2)cs1 [CBK305251]	99.4789
CN(C)CCCNC(=O)C1CCCN(c2nc3c(-c4ccccc4)csc3c(=O)[nH]2)C1 (centres unmarked) [CBK215504]	155.128
O=C(NCCc1ccc(O)cc1)c1ccc2nc[nH]c2c1 [CBK153323]	103.741
Cc1ccc(S(=O)(=O)N2CCOCC2)cc1-c1cnc(N)c(-c2ccc(O)cc2)n1 [CBK122519]	82.503
COc1cccc2cc(C(=O)NCc3c(F)cccc3F)oc12 [CBK149794]	86.7889

Structure (SMILES)	% of control remaining [%]
Cc1nn(C)cc1-c1cncn1Cc1cccc(OC(C)C)c1 [CBK281484]	118.88
CC(=O)Nc1ccc(Nc2cc(-c3ccc(Cl)cc3)ncn2)cc1 [CBK090720]	104.008
O=C(C1CC1)N1CC2CN(Cc3ccccc3)CC2C12CCOCC2 (centres unmarked) [CBK283055]	123.553
Cc1cccc(-c2ncc(NC(=O)CCOc3ccccc3)nc2-c2ccc(N)cc2)c1 [CBK036655]	90.3182
Cc1csc(-c2cnc(N3CCOCC3)c3nccn23)c1 [CBK091287]	188.515
Oc1c(-c2cccc(C(F)(F)F)c2)cnc2cccnc12 [CBK081290]	105.392
O=C(c1cccnc1)N1CCN(S(=O)(=O)c2ccc(F)cc2)CC1 [CBK264210]	126.168
O=C(Nc1ccc(Cl)cc1)Nc1cccc(C(=O)O)c1 [CBK269404]	98.8959
COc1ccccc1Cc1cccc(C2CCN(C(=O)c3ccccc3)CC2)n1 [CBK286236]	99.5331
O=C(N[C@H]1CCN2C(=O)c3cc(-c4ccccc4F)ccc3NC(=O)[C@H]12)c1cnccn1 [CBK289274]	125.381
O=C(Nn1cnnc1)c1ccccc1F [CBK027603]	149.104
OCC1OC(n2cnc3c(Oc4ccccc4)ncnc32)CC1O (centres unmarked) [CBK201181]	147.217
CC(C)(C)OC(=O)N1CCCN(Cc2nc(-c3cccnc3)no2)CC1 [CBK305309]	81.8007
O=C(O)c1cccc(NS(=O)(=O)c2ccc(OC(F)(F)F)cc2)c1 [CBK155077]	98.3193
CC1=NN(c2ccc(C)cc2)C(=O)/C1=C\Nc1ccc(S(=O)(=O)Nc2nc(C)cc(C)n2)cc1 [CBK262398]	13.5862
CCN1CCN(c2ccc(NS(=O)(=O)c3ccccc3)c3ccccc23)CC1 [CBK200011C]	116.387
CC(=O)Nc1ccc(S(=O)(=O)Nc2ccc(C(=O)Nc3ccc(F)cc3)cc2)cc1 [CBK050401]	13.9373
CCN(CC)C(=O)C1CCCN(C(=O)NCc2ccc(C#N)cc2)C1 (centres unmarked) [CBK156132]	103.294
COc1ccc2cc(C(=O)NCCCc3ccccn3)n(C)c2c1 [CBK282545]	118.91
O=C1c2ccccc2C(=O)N1CCOc1nccnc1-c1ccsc1 [CBK106760]	116.515
Clc1ccc(CSc2cccs2)cn1 [CBK002639]	110.454
COc1ccccc1CN(CCCn1ccnc1)Cc1ccco1 [CBK283116]	115.3
CCN(CC)CCNc1nc2c(=O)[nH]c(=O)n(C)c2[nH]1 [CBK287918]	97.5156
CCOc1cc(C)c(C(C)C)cc1S(=O)(=O)NCCN1CCOCC1 [CBK268727]	152.291
COc1cc2c(cc1OC)C(CCN1CCN(c3ccc(Cl)cc3)CC1)OCC(C)(C)C2 (centres unmarked) [CBK024051C]	128.773

Individual results from the results shown.
In % of control remaining [%], Cc1nc2c(c(=O)[nH]1)CN(C1CCCCC1)CC2 [CBK282416] is listed with 128.171
In % of control remaining [%], COc1ccccc1NC(=O)CNC(=O)c1ccc([N+](=O)[O-])cc1 [CBK268657] is listed with 137.903
In % of control remaining [%], O=C1c2ccccc2C(=O)N1CCOc1nccnc1-c1ccsc1 [CBK106760] is listed with 116.515
